Assay [1] has as its target Myc-tagged RNF43 (RING finger 43), wild type (human) (UniProt Q68DV7). Briefly: co-IP; AsPC-1 cells ectopically expressing Myc-tagged RNF43; reverse immunoprecipitation of Myc-RNF43, western blot; lysis in RIPA buffer (50 mM Tris-HCl pH 8.0, 150 mM NaCl, 1% NP-40, 0.5% deoxycholate, 0.1% SDS) with 5 mM N-ethylmaleimide; antibody at 4 °C overnight, Protein A/G Mag Sepharose.

Amino acid sequences for entries named in this document (tags omitted). A change or cut given only in a name is not applied to a line headed by its entry. Residues count along the entry.
UniProt Q68DV7, residues 24-783: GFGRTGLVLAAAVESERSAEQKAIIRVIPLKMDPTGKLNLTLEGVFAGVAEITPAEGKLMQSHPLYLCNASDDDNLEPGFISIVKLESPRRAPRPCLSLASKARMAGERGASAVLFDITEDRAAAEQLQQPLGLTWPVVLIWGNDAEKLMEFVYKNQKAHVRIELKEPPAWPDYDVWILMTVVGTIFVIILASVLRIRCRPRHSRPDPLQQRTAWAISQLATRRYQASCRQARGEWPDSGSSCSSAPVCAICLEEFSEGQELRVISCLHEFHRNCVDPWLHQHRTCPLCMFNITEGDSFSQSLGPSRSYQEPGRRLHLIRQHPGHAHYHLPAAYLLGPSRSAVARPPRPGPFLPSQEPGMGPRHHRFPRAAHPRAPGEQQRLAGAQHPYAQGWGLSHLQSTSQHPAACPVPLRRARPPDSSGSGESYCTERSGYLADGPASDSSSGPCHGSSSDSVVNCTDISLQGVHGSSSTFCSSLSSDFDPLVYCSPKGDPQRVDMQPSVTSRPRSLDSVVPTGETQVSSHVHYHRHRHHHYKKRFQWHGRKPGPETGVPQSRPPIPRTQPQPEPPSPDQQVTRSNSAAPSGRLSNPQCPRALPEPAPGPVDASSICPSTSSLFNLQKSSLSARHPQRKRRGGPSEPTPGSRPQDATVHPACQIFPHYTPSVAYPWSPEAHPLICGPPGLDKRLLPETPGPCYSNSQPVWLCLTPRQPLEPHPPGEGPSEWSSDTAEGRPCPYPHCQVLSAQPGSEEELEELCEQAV
UniProt P15056: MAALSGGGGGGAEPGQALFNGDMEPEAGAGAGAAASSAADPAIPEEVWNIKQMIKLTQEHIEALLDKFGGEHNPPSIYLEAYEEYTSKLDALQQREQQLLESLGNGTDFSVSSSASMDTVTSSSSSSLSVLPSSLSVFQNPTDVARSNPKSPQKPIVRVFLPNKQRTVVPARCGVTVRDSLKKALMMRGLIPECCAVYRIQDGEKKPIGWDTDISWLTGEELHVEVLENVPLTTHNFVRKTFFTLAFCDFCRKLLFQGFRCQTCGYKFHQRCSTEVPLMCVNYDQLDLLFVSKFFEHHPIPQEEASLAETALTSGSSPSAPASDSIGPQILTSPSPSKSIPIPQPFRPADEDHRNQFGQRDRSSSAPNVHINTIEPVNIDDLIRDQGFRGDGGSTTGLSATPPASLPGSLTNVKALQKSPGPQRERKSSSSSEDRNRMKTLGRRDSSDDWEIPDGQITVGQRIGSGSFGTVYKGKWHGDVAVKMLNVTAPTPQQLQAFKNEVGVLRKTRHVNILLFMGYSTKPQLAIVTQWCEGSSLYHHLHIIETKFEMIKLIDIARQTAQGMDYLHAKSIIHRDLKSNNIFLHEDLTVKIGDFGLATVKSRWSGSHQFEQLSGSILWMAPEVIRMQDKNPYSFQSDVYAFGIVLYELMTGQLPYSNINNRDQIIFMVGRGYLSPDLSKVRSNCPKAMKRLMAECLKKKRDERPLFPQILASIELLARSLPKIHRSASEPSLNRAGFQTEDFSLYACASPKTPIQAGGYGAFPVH
UniProt Q9P286: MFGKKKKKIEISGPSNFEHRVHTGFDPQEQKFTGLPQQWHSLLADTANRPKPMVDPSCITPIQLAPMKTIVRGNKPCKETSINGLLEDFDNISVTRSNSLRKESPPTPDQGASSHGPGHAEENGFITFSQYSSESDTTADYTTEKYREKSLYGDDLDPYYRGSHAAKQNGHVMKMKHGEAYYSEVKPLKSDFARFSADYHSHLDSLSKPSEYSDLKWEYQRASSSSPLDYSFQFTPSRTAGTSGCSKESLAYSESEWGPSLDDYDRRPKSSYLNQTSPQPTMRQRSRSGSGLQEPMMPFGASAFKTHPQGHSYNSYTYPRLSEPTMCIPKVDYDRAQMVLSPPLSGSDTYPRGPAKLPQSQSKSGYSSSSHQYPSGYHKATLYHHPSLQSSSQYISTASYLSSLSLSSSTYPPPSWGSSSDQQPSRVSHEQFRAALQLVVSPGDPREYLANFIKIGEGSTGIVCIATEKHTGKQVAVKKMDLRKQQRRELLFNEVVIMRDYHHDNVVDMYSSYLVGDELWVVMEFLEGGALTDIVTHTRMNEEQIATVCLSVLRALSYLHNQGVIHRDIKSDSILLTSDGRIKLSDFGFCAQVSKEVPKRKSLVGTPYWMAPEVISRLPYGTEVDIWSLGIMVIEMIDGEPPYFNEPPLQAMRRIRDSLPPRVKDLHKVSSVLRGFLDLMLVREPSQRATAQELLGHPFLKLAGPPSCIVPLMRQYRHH

The target in another assay is Flag-B-RAF K499R (human) (UniProt P15056). Briefly: co-IP; PANC-1 cells transfected with control, wild-type or mutant B-RAF plasmids (MG132 treatment named for the K499R panel); immunoprecipitation with B-RAF antibody, RNF43 blotted and quantified; RIPA buffer with 5 mM N-ethylmaleimide, 4 °C overnight, Protein A/G Mag Sepharose.
A further assay concerns the target Flag-B-RAF T491A (human) (UniProt P15056). Described as above.
For assay [2], the target named is Flag-B-RAF wild type (human) (UniProt P15056). The description is as above.

These are yes or no findings as the source states them, for the method shown. Binding seen in cells or lysates may run through a third protein. Some results given as binding are weak or reduced against the parent protein; the word gives no strength.

For the substance “PAK5 (p21-activated kinase 5) (from UniProt Q9P286 1-719)”, the binding result in assay [1] is given as “no binding”.

As to “B-RAF (in AsPC-1 cells) (from UniProt P15056 1-766)”, the binding result in assay [1] is “binds”.

Regarding “RNF43, endogenous wild type in PANC-1 cells (from UniProt Q68DV7 24-783) (enzyme)”, the binding entry (with Flag-B-RAF K499R (human); with Flag-B-RAF T491A (human); in assay [2]) was “binds” in each case.
